Measured values published in the supplement of paper PMC11006884.
This is a selection; strong and weak results do not stand in their true shares.

Amino acid sequences for entries named in this document (tags omitted). A change or cut given only in a name is not applied to a line headed by its entry.
UniProt P48643, whole entry, looked up: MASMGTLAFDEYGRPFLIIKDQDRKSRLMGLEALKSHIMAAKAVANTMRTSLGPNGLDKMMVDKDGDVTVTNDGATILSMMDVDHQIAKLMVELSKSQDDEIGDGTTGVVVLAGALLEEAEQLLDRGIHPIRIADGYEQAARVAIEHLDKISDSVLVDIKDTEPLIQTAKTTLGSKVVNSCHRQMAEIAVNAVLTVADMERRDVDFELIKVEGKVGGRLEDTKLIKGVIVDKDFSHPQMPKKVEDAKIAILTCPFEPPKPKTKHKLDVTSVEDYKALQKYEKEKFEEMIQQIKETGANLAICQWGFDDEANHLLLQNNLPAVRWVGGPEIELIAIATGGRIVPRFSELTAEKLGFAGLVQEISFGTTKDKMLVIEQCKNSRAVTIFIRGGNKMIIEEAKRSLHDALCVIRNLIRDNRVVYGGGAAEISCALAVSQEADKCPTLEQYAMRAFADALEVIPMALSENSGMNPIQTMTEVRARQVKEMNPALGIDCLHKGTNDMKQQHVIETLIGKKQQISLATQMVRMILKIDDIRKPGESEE
UniProt P46013: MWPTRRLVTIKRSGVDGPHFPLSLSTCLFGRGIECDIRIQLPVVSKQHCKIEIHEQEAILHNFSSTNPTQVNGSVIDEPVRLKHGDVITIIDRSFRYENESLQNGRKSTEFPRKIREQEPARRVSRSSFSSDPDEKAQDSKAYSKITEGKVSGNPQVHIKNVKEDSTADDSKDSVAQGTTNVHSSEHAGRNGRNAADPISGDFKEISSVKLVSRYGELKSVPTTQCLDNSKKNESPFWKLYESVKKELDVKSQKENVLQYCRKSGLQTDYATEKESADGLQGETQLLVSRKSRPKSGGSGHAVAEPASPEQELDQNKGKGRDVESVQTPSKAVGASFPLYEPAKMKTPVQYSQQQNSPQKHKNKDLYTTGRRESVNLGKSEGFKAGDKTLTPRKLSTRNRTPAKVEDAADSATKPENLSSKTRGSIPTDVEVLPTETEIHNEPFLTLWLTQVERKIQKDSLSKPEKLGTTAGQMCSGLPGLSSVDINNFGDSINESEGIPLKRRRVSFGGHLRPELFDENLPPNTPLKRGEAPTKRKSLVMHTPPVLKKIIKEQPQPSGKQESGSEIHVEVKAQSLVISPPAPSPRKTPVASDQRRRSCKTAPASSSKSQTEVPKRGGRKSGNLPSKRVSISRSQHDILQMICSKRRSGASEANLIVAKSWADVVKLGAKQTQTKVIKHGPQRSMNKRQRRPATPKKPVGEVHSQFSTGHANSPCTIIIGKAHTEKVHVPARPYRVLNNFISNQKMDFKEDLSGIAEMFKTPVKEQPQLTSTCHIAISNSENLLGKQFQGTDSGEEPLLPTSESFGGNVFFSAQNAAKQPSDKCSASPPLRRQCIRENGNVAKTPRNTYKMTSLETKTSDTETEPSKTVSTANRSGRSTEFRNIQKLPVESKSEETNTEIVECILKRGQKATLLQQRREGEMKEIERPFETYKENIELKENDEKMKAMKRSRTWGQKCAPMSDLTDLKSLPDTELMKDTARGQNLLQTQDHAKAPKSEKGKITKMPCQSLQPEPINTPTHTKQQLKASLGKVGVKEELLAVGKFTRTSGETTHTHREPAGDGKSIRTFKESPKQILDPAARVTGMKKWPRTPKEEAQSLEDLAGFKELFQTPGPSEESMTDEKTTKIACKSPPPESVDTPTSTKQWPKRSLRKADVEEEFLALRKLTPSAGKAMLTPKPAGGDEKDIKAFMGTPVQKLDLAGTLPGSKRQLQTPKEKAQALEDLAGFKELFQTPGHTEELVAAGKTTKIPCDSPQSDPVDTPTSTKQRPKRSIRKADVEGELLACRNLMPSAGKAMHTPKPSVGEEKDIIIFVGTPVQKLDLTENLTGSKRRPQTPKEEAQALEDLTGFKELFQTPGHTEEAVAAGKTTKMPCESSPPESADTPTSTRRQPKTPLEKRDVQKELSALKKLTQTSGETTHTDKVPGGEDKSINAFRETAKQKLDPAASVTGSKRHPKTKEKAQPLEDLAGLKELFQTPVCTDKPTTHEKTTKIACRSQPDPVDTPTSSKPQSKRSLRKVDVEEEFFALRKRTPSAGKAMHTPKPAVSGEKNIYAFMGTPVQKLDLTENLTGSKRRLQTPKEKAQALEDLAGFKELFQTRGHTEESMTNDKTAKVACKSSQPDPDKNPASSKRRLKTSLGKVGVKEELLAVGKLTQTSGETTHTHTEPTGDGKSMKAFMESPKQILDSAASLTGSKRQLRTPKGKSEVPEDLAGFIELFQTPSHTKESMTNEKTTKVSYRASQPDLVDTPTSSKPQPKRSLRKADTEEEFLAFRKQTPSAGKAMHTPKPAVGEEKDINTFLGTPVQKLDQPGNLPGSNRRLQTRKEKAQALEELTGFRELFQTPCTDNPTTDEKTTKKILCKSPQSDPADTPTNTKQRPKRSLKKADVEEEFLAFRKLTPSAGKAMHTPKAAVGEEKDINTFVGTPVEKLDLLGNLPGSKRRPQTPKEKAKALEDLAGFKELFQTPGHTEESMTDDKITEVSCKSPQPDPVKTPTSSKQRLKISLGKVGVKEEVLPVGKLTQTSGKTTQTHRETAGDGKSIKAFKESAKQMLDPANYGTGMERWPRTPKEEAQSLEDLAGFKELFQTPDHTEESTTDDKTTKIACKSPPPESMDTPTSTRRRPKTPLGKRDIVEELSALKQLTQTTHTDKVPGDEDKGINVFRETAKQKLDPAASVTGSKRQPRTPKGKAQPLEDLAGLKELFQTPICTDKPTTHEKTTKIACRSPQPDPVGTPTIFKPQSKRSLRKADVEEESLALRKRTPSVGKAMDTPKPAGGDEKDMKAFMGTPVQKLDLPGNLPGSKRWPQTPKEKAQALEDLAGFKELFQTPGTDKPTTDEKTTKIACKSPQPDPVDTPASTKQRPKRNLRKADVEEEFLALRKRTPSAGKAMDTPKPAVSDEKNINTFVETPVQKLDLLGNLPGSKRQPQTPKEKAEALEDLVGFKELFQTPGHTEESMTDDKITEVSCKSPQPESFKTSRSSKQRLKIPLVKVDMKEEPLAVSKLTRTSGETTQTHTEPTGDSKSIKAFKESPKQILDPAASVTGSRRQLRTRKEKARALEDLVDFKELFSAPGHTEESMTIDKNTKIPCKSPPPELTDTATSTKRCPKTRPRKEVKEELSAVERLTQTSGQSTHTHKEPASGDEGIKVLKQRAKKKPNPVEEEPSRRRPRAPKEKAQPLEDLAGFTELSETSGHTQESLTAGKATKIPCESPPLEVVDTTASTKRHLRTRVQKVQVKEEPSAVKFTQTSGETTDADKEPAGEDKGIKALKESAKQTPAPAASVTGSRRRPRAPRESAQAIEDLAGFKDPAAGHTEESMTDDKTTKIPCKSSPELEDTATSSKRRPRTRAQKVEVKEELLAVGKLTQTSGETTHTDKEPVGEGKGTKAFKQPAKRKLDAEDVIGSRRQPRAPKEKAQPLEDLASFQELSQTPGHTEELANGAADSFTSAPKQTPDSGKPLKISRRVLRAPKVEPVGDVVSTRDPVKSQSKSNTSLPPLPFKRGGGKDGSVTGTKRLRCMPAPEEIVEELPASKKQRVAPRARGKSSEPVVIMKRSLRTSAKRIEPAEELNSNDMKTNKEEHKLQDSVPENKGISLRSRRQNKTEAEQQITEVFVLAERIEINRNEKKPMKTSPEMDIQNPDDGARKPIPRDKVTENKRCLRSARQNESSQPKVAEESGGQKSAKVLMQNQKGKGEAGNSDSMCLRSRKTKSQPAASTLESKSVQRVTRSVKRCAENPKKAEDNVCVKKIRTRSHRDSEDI
UniProt P45974: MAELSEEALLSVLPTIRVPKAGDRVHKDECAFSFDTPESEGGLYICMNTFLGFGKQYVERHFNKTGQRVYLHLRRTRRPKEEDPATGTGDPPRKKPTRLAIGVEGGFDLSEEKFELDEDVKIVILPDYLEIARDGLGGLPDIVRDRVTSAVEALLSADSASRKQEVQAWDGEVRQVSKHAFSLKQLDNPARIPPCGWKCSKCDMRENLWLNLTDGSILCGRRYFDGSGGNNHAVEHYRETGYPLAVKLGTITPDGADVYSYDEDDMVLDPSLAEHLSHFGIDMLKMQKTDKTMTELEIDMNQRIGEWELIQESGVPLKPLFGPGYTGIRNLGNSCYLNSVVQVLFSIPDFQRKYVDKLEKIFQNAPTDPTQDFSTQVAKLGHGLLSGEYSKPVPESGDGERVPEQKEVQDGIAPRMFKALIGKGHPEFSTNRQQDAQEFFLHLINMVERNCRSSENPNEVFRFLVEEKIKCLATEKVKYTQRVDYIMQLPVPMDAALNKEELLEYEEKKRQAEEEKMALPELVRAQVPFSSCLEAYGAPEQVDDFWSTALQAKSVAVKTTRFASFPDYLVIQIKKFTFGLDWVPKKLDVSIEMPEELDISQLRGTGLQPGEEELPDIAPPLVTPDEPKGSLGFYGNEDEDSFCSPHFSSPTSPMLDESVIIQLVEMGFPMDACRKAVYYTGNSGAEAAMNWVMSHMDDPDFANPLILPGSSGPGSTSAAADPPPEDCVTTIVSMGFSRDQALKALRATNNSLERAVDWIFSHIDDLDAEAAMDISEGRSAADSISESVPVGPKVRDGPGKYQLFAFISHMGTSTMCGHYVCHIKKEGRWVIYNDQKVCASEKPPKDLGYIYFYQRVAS
UniProt P49069: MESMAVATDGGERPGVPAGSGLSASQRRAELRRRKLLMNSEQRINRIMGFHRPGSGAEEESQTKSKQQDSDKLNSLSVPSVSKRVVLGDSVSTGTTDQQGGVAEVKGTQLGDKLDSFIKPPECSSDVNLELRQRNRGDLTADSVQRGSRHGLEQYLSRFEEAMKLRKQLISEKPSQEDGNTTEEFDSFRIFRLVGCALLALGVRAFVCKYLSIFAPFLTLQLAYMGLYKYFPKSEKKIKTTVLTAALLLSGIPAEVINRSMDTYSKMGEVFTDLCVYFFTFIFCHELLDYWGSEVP
UniProt P49368: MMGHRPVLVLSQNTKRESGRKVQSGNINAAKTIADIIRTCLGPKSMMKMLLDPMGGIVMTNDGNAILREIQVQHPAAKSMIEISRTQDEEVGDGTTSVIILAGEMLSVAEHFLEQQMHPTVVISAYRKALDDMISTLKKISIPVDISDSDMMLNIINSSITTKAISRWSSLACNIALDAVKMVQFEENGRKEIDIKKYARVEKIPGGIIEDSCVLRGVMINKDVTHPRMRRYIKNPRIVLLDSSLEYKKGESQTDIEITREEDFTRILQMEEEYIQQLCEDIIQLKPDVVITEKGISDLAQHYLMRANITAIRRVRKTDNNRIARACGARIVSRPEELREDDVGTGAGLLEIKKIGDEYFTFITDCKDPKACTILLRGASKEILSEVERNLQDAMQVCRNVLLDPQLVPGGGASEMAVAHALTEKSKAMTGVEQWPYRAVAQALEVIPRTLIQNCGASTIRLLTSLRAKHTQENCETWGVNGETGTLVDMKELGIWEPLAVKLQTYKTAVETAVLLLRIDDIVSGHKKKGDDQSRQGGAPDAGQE
UniProt P49915: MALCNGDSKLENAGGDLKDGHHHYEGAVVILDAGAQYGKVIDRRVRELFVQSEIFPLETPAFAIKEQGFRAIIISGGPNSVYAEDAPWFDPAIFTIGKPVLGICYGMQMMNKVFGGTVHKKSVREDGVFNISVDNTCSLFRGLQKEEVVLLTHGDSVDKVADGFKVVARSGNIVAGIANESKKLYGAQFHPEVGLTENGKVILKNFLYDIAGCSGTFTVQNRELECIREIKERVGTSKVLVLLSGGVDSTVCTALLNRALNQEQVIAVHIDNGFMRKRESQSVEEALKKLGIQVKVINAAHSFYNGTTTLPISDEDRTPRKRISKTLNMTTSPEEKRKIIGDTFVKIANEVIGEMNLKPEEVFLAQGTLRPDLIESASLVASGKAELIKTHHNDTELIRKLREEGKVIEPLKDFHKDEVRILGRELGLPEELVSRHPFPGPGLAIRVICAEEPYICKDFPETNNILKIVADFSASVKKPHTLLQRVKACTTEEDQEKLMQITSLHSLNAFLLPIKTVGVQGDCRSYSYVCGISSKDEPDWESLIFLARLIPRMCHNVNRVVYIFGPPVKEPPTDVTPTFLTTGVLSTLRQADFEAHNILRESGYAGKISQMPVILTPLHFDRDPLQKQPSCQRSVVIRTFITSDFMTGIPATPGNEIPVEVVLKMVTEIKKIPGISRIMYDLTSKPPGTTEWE
UniProt P47756, whole entry, looked up: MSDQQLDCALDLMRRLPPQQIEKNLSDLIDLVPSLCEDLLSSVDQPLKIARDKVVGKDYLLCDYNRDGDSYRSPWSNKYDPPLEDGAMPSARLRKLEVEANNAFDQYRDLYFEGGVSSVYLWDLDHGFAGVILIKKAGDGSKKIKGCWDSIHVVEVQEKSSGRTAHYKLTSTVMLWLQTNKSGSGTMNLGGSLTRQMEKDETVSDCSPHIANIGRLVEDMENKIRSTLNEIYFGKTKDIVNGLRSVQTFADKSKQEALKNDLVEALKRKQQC

These targets were tested with COC(=O)C#Cc1ccccc1 [methyl 3-phenylpropiolate] (assay: log2 ratio of iodoacetamide-alkyne labeling of the cysteine site, DMSO over compound (competition); higher = stronger covalent engagement of the cysteine by the compound, active = 1 or more). Conditions: 500 µM; treatment time 1 h; system: HEK293T cell lysate.
Outline: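 Reporter intensities give each cysteine's log2 competition ratio as the mean of control channels over the mean of compound channels. The samples were HEK293T lysate (2 mg/mL) given vehicle or electrophile (500 µM, 1 h, ambient temperature), then iodoacetamide alkyne (1 h), followed by click coupling to sCIP-TMT reagents, pooling, trypsin digestion overnight at 37 °C, streptavidin enrichment, acid elution, Orbitrap Eclipse LC-MS/MS with FAIMS and FragPipe quantification. Duplicate channels and three replicates were run, and cysteines quantified in only one replicate were discarded.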

Target	log2 ratio of iodoacetamide-alkyne labeling
UniProt P49591_C300	inactive: 0.0415
CCT5 C407 (UniProt P48643)	inactive: 0.0369
MKI67 C1479 (UniProt P46013)	inactive: 0.31
USP5 C219 (UniProt P45974)	inactive: -0.184
CCT8 C187 (UniProt P50990)	inactive: 0.172
IDH2 C154 (UniProt P48735)	inactive: 0.393
CAMLG C123 (UniProt P49069)	inactive: 0.308
UniProt P48230_C2	inactive: -0.137
CCT3 C173 (UniProt P49368)	inactive: 0.209
MKI67 C226 (UniProt P46013)	inactive: 0.319
CCT3 C279 (UniProt P49368)	inactive: -0.00266
INPP1 C10 (UniProt P49441)	inactive: 0.473
NUMB C611 (UniProt P49757)	inactive: 0.465
LIMS1 C121 (UniProt P48059)	inactive: 0.19
MKI67 C3241 (UniProt P46013)	inactive: 0.453
DNM2 C27 (UniProt P50570)	inactive: 0.0839
CCT8 C244 (UniProt P50990)	inactive: 0.242
CCT5 C253 (UniProt P48643)	inactive: 0.167

Two entries from above, with bars between the fields.
Target | log2 ratio of iodoacetamide-alkyne labeling
UniProt P48230_C2 | inactive: -0.137
CCT3 C173 (UniProt P49368) | inactive: 0.209

Remaining list, next part

Target	log2 ratio of iodoacetamide-alkyne labeling
MCM2 C315 (UniProt P49736)	inactive: 0.337
PREP C532 (UniProt P48147)	inactive: 0.134
CCT5 C181 (UniProt P48643)	inactive: 0.237
GMPS C4 (UniProt P49915)	inactive: 0.377
LIG3 C929 (UniProt P49916)	inactive: 0.317
MAP1B C1228 (UniProt P46821)	inactive: 0.169
UTRN C1218 (UniProt P46939)	inactive: 0.0264
ARCN1 C441 (UniProt P48444)	inactive: 0.317
UniProt P49840_C398	inactive: 0.241
GALK1 C182 (UniProt P51570)	inactive: 0.0992
CAPZB C206 (UniProt P47756)	inactive: 0.316
PCYT1A C73 (UniProt P49585)	inactive: 0.921
FASN C1118 (UniProt P49327)	inactive: 0.203
PCYT1A C37 (UniProt P49585)	inactive: 0.291
RANBP2 C105 (UniProt P49792)	inactive: 0.0738
GPD2 C285 (UniProt P43304)	inactive: 0.152
MKI67 C643 (UniProt P46013)	inactive: 0.312
GSS C294 (UniProt P48637)	inactive: 0.15
